Data as given in PubChem BioAssay AID504786 (Drosophila RNAi Screening Center, 2011).
Test: 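Knock-downs reducing HIF reporter induction by the iron chelator DFO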 (primary screen). Cells: Drosophila S2 cells with a stable HIF luciferase reporter. Reagents: long dsRNA against Drosophila genes, about 0.2 µg dsRNA per well of a 384-well plate. Time to read-out: three days of knock-down, then 20 h of DFO before reading. Conditions: desferrioxamine (DFO) at 100 µM, an iron chelator that mimics hypoxia, for 20 h. Read-out: 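Firefly luciferase driven by the mouse ldh-a hypoxia-response element, measured after 20 h of 100 µM DFO; z-scores per plate, higher means more signal lost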. Direction: z-score: higher = stronger loss of HIF reporter signal.
The screen tested about 21,000 reagents; below is a random part of those that have a named target and a result. 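Primary screen; positive scores mean lost reporter signal, so the sign may be inverted from the usual convention.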 No sequences are given here.

| gene | dsRNA | z-score, replicate 1 | z-score, replicate 2 |
| --- | --- | --- | --- |
| tara (taranis) | DRSC17076 | -0.4 | -1 |
| CG34030 | DRSC08866 | -0.3 | 0.3 |
| CG2182 | DRSC12308 | -0.3 | -0.5 |
| Brd8 (Bromodomain containing 8) | DRSC14866 | -0.5 | -0.9 |
| Cpr97Ea (Cuticular protein 97Ea) | DRSC15974 | -0.4 | -0.4 |
| PolA1 (DNA polymerase alpha subunit 1) | DRSC16640 | 0.1 | 0.9 |
| CG34133 | DRSC16319 | -0.4 | -0.4 |
| CG30413 | DRSC04001 | -0.2 | -0.3 |
| Pdha (Pyruvate dehydrogenase E1 alpha subunit) | DRSC18413 | 0.1 | 0 |
| Dp1 (Dodeca-satellite-binding protein 1) | DRSC07403 | -0.3 | -0.4 |
| CG8314 | DRSC07144 | -0.3 | -0.4 |
| CG6610 | DRSC10674 | -0.2 | -0.1 |
| Hacl (2-hydroxyacyl-CoA lyase) | DRSC06061 | -0.2 | 0.5 |
| Ddx56 (DEAD-box helicase 56) | DRSC20567 | 0.7 | 0.4 |
| CG17002 | DRSC04978 | 0 | -0.2 |
| hyd (hyperplastic discs) | DRSC16971 | 0.9 | 0.6 |
| CG15561 | DRSC15100 | -0.4 | -0.1 |
| muc (midline uncoordinated) | DRSC02832 | -0.4 | -0.5 |
| Hsp27 (Heat shock protein 27) | DRSC11190 | -0.4 | -0.5 |
| esn (espinas) | DRSC05039 | 1 | 1.1 |
| esn (espinas) | DRSC07612 | -0.2 | -0.6 |
| pdgy (pudgy) | DRSC19064 | -0.1 | -0.3 |
| pdgy (pudgy) | DRSC19341 | -0.2 | -0.6 |
| CG42700 | DRSC06292 | 3.8 | 4.2 |
| CG42700 | DRSC06293 | -0.3 | -0.2 |
| IleRS-m (Isoleucyl-tRNA synthetase, mitochondrial) | DRSC10506 | 0 | -0.1 |
| vkg (viking) | DRSC03632 | -0.3 | -0.3 |
| CG17777 | DRSC18137 | -0.3 | -0.3 |
| PIP82 | DRSC18694 | 0 | 0.1 |
| sxc (super sex combs) | DRSC04911 | 0.3 | 0 |
| Brr2 (Brr2 U5 snRNP complex subunit) | DRSC10559 | 5.6 | 4.1 |
| sbb (scribbler) | DRSC05723 | 0.2 | -0.1 |
| sbb (scribbler) | DRSC07676 | -0.3 | -0.6 |
| Hmbs (Hydroxymethylbilane synthase) | DRSC08632 | -0.3 | -0.6 |

2 entries from above, showing only “z-score, replicate 1”:
esn (espinas) [DRSC07612] = -0.2
pdgy (pudgy) [DRSC19064] = -0.1
